Reference: PubChem BioAssay AID504764 (Drosophila RNAi Screening Center, 2011)
The screen tested about 22,000 reagents; this is an unselected part of those with a known target gene and a result. In the full data, 403 (1.9%) got an active call. 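Unnormalised raw counts per well; ratio z-scores behind the hit calls and whether each hit raises or lowers signal are not deposited.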 The numbers tell different reagents against one gene apart. The record does not give: the amount of reagent.

Assay: 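Genome-wide screen for regulators of Notch-driven gene expression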 (primary screen)
Cell system: Drosophila Kc167 cells
Knock-down reagent: long dsRNA against Drosophila genes
Timing: about 5 days (4 days dsRNA, then 24 h after transfection)
Conditions: transfection of constitutively active membrane-tethered Notch lacking the extracellular domain, read 24 h later
Detection: 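Light from a Notch-responsive E(spl)m3 luciferase reporter under active Notch, with control-promoter and no-Notch reporter wells to normalise; raw counts from paired wells a and b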
Scale: induced reporter light, run 1, well a and induced reporter light, run 1, well b: higher = more light from the Notch target reporter with active Notch; control promoter light, run 1, well a and control promoter light, run 1, well b: higher = more light from the viral control promoter (cell number, transfection, viability); uninduced reporter light, run 1, well a: higher = more light from the Notch target reporter without active Notch
Active means: 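Hit if the duplicate-averaged log2 ratio of induced to control-promoter light gives a plate-wise z beyond ±2, or induced to uninduced beyond ±1.8; weak-control or discordant-duplicate wells dropped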
Meaning of the calls: active = modifier hit (raised or lowered Notch signal); inactive = not a hit

gene | reagent no. | induced reporter light, run 1, well a | induced reporter light, run 1, well b | control promoter light, run 1, well a | control promoter light, run 1, well b | uninduced reporter light, run 1, well a | Call
Alp5 | 1 | 1.93e5 | 1.81e5 | 2.11e5 | 2.38e5 | 14500 | inactive
CG11883 | 1 | 1.55e5 | 1.51e5 | 1.74e5 | 1.59e5 | 13400 | inactive
Nepl8 | 1 | 1.48e5 | 1.60e5 | 1.37e5 | 1.50e5 | 12815 | inactive
Mco4 | 1 | 70260 | 63540 | 54180 | 57530 | 8470 | inactive
CG14346 | 1 | 1.01e5 | 1.07e5 | 1.04e5 | 68260 | 8592 | inactive
betaTub60D | 1 | 2.07e5 | 1.98e5 | 1.98e5 | 1.72e5 | 13555 | inactive
CG31797 | 1 | 52440 | 51700 | 60105 | 51540 | 2980 | inactive
CG31797 | 2 | 29960 | 37085 | 40165 | 31900 | 2360 | inactive
CG5217 | 1 | 1.98e5 | 1.75e5 | 2.25e5 | 2.31e5 | 13528 | inactive

Already shown: an excerpt of the list.
gene | reagent no. | induced reporter light, run 1, well a | induced reporter light, run 1, well b | control promoter light, run 1, well a | control promoter light, run 1, well b | uninduced reporter light, run 1, well a | Call
CG11883 | 1 | 1.55e5 | 1.51e5 | 1.74e5 | 1.59e5 | 13400 | inactive
Nepl8 | 1 | 1.48e5 | 1.60e5 | 1.37e5 | 1.50e5 | 12815 | inactive

Additional records follow.
gene | reagent no. | induced reporter light, run 1, well a | induced reporter light, run 1, well b | control promoter light, run 1, well a | control promoter light, run 1, well b | uninduced reporter light, run 1, well a | Call
PIG-K | 1 | 89360 | 94190 | 1.75e5 | 1.55e5 | 8942 | inactive
CG18814 | 1 | 1.60e5 | 1.46e5 | 1.90e5 | 1.66e5 | 7290 | inactive
CG34284 | 1 | 1.94e5 | 1.57e5 | 2.26e5 | 2.52e5 | 14828 | inactive
Jon99Cii | 1 | 3330 | 3275 | 7445 | 7760 | 380 | inactive
CG15236 | 1 | 2.14e5 | 1.88e5 | 2.55e5 | 2.51e5 | 19610 | inactive
sv | 1 | 1.24e5 | 1.24e5 | 2.22e5 | 2.57e5 | 10715 | inactive
CG14395 | 1 | 88370 | 88090 | 86425 | 78755 | 7155 | inactive
CG11722 | 1 | 87630 | 1.28e5 | 1.10e5 | 83790 | 6265 | inactive
Bap60 | 1 | 45765 | 42115 | 48005 | 35610 | 4410 | inactive
CG32182 | 1 | 1.69e5 | 1.84e5 | 2.87e5 | 2.59e5 | 19825 | inactive
CG18731 | 1 | 1.19e5 | 1.21e5 | 1.54e5 | 1.70e5 | 11690 | inactive
